Tests used:
[1] = tested on: SB.mhdgc-1; assay: AC50 for growth inhibition (viability) (log10 M); higher = less potent; conditions: SB.mhdgc-1 (hereditary c.1380delA CDH1 gastric cancer)
In short: (§1)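 Gastric cancer cells from hereditary or sporadic patients, 500 per 1536 well, were exposed to compound for 48 h over 11 threefold dilutions from a final 46 μM. CellTiter-Glo luminescence, read on a ViewLux, measured viability, which was normalised to DMSO. The log half-maximal activity concentration came from four-parameter fits, and only high-quality curve classes were kept.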

[2] = tested on: SB.msgc-1; assay: as above; conditions: SB.msgc-1 (sporadic gastric cancer)
In short: as §1

[3] = tested on: SB.mhdgc-1; assay: viability at highest tested concentration (MAXR) relative to DMSO; higher = less cytotoxic; conditions: SB.mhdgc-1 (hereditary c.1380delA CDH1 gastric cancer)
In short: (§2)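 The measure is viability normalised to DMSO, given as trapezoidal area under the curve or at the highest concentration. Patient-derived gastric cancer cells, hereditary or sporadic, were exposed for 48 h to compound at 11 threefold-diluted concentrations, each compound's top concentration being recorded. Luminescence was read on a ViewLux after 30 min with CellTiter-Glo at room temperature.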

[4] = tested on: SB.msgc-1; assay: as above; conditions: SB.msgc-1 (sporadic gastric cancer)
In short: as §2

[5] = tested on: SB.mhdgc-1; assay: area under the dose-response curve of % viability (trapezoidal, 11 doses) (% viability x log10 concentration); higher = less cytotoxic; conditions: SB.mhdgc-1 (hereditary c.1380delA CDH1 gastric cancer)
In short: as §2

[6] = tested on: SB.msgc-1; assay: as above; conditions: SB.msgc-1 (sporadic gastric cancer)
In short: as §2

Row | Structure (SMILES) | AC50 for growth inhibition (log10 M) [1] | AC50 for growth inhibition (log10 M) [2] | viability [3] [%] | viability [4] [%] | area under the dose-response curve [5] | area under the dose-response curve [6]
1 | CC1=C(C=CC=C1)N2C(=O)C3=C(C=CC=C3C)\N=C2\C[N]4N=C(C5=CC(=CC=C5)O)C6=C(N)N=CN=C46 [PIK-294] | -5.53 | -7.03 |  |  |  | 
2 | CC1=C(C=CC=C1)N2C(=O)C3=C(C=CC=C3C)\N=C2\C[N]4N=C(C5=CC(=CC=C5)O)C6=C(N)N=CN=C46 [PIK-294] (top concentration 46.0829 µM) |  |  | 21.1 | 23 | 370 | 307
3 | COC(=O)[C@H](CCCNC(=N)N)N[S+](=O)([O-])c1ccc(C)cc1 [TAME] (top concentration 46.0829 µM) |  |  | 92.5 | 102 | 492 | 532

— the supplement of paper PMC5412046
